# PubChem BioAssay AID493014 (National Center for Advancing Translational Sciences (NCATS), 2011)
# Among all 340,000 compounds or so, about 170 (0.05%) were called active. This list was built around the results that the source calls inconclusive (neither active nor inactive); the mix of calls is not that of the screen. The call rests on the fitted dose curve; in most records, active means well fitted inhibition curve with a large enough effect in the signal ratio, with a control signal flat (not every such curve was filed as active); inconclusive means small, poorly fitted or top-dose-only effect, or effect the other way, or a change in a side signal; inactive means flat fitted curve, though single readings scatter; the % refers to the signal ratio. Where the call is inconclusive, the potency comes from a doubtful curve fit.
# Test: qHTS Assay to Find Inhibitors of Chronic Active B-Cell Receptor Signaling;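 on activity change, negative = inhibition: plate controls were basal doxycycline-induced cells for no effect and cells given 10 µM MG132 for full effect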
# Conditions: ABC-DLBCL IkBa-CBG/CBR reporter, luminescence ratio (green luciferase fused to IkBa over red control in TMD8 lymphoma cells), 4 h; activity change, negative = inhibition: at 46.1 µM (top of the series)
# Outline: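 Concentration-response series (up to 46 uM) were applied to TMD8 dual-reporter cells for 4 h at 37C with doxycycline. Green/red ratio, after filter-overlap correction, defined %Activity; red signal alone was normalised to basal cells and zero luminescence.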
# Potency means the concentration at half of the fitted maximal effect.
SMILES,"activity change, negative = inhibition",Potency
COc1cc2nc(N(CCCN(C)C)C(=O)c3ccc(C(=O)c4ccccc4)cc3)sc2cc1OC,inactive,
CC1CN(C(=O)/C=C/c2ccc3c(c2)OCO3)CC(C)O1 (centres undefined),inconclusive: -1.54%,
CCOc1cccc(-c2nnc3sc(-c4cc(OC)c(OC)c(OC)c4)nn23)c1,inconclusive: -0.292%,
O=C(CC(=O)c1ccccc1O)c1ccc(F)cc1,inconclusive: 1.45%,
O=C(CSc1ncccc1-c1nc2ccccc2[nH]1)NCc1ccco1,,"inconclusive: 14.1 µM [falling, partial curve]"
COc1ccc(C(=O)Nc2ccc(N3CCOCC3)cc2)cc1OC,inactive,
CCc1c(C(=O)c2ccc(Cl)cc2)oc2c(C)c3oc(=O)cc(C)c3cc12,inactive,
Cc1ccc(-n2nc(C)c3cc(C(=O)O)sc32)cc1,,"inconclusive: 29.1 µM [falling, single point]"
O=C(O)C1C2C=CC(C2)C1C(=O)Nc1ccccc1Br (centres undefined),inconclusive: 1.66%,
Cn1c(=O)c2sccc2n2c(CCCC(=O)NCc3ccccc3)nnc12,inactive,
O=C(/C=C/c1ccccc1)N1CCN(c2ccccn2)CC1,,"inconclusive: 35.5 µM [falling, single point]"
C=CCNc1nc(Nc2ccccc2F)nc(OCC)n1,inconclusive: -16.8%,
O=C(O)c1ccc(S(=O)(=O)c2ccc3c(c2)C(=O)N(NC(=O)c2ccc(O)cc2)C3=O)cc1,inconclusive: 312%,
Cc1cc(C(=O)NCc2ccccc2)c(=O)[nH]c1C,inconclusive: -14.7%,
Cc1ccc(C)c(NC(=O)CN(C)C(C)C(=O)N2CC(C)CC(C)C2)c1 (centres undefined),inactive,
CC(=O)Nc1nc2ccccc2n1Cc1ccc(Cl)cc1,,"inconclusive: 35.5 µM [falling, single point]"
CCN(C(=O)COC(=O)c1ccccc1Nc1cccc(C)c1C)C1CCS(=O)(=O)C1 (centres undefined),,"inconclusive: 3.16 µM [falling, partial curve]"
O=C(Nc1ccc2c(c1)OCO2)c1ccc(Cl)cc1Cl,inconclusive: -2.04%,
Cc1ccc(C(=O)OC(C)C(=O)NC2CCCCC2C)cc1S(=O)(=O)N1CCOCC1 (centres undefined),inconclusive: 3.85%,
Cc1ccc(Oc2c(C(N)=O)cc([N+](=O)[O-])cc2[N+](=O)[O-])cc1,inconclusive: 8.9%,
COc1ccc(NC(=O)c2cccc(NC(=O)C3C4CC5OC(=O)C3C5C4)c2)c(OC)c1 (centres undefined),,"inconclusive: 20.6 µM [falling, single point]"

SMILES,"activity change, negative = inhibition",Potency
COc1ccccc1NCc1cc(=O)oc2c(C)c(O)ccc12,inconclusive: -2.46%,
O=C(/C=C/c1ccccc1)Nc1ccc(Br)cn1,,"inconclusive: 7.94 µM [falling, partial curve]"
O=C1/C(=C\Nc2ccc(OC(F)(F)F)cc2)CCN1c1ncccn1,,"inconclusive: 0.92 µM [rising, full curve, poor fit]"
COc1cccc2cc(C(=O)NCC3CCCO3)c(=O)oc12 (centres undefined),,"inconclusive: 18.4 µM [falling, partial curve]"
CN(c1ccc(C(=O)Nc2ccc3c(c2)OCCO3)cc1)S(C)(=O)=O,inconclusive: 2.42%,
CCOC(=O)c1cc(-c2ccncc2)nc2c1c(C)nn2-c1ccccn1,inactive,
O=C(Nc1ccc(Cl)cc1C(=O)Nc1ccccn1)c1ccco1,inactive,
CCN(CC)S(=O)(=O)c1cc(NC(=O)c2ccc3c(c2)NC(=O)C(C)S3)ccc1C (centres undefined),inconclusive: -10.5%,
N#CC(c1ccc(Cl)nn1)c1ccc(Cl)cc1Cl (centres undefined),inconclusive: -18.5%,
Cn1c(C(=O)NCc2cccnc2)cc2sccc21,inconclusive: -7.27%,
O=C(NC1CCCC1)C(c1ccncc1)N(Cc1ccco1)C(=O)c1ccc(-c2ccccc2)[nH]1 (centres undefined),,"inconclusive: 1.58 µM [rising, full curve, poor fit]"
COc1ccc(N=Nc2ccc(O)c3ncccc23)cc1,inconclusive: -1.08%,
CCn1c(SCC(=O)Nc2cccc(S(=O)(=O)N(C)c3ccccc3)c2)nnc1C1CC1,inactive,
Nc1nonc1-n1nnc(C(=O)N/N=C/c2ccc(Cl)cc2)c1-c1ccc2c(c1)OCO2,inconclusive: -1.41%,
Cc1cc(C)cc(-n2c(SCC(=O)NCc3ccc4c(c3)OCO4)nc3ccccc3c2=O)c1,inactive,
CCOc1ccc(C(=O)/C=C/Nc2ccc(S(=O)(=O)Nc3cc(C)nc(C)n3)cc2)cc1,inconclusive: 17.6%,
CCCc1c(C(=O)N/N=C/c2cccs2)nnn1-c1nonc1N,inconclusive: 9.04%,
O=C(CC1NCCN(Cc2ccccc2)C1=O)Nc1ccccc1 (centres undefined),inactive,
COc1ccc(CNCCC(c2ccc(OC(C)C)cc2)c2ccccc2OC)cc1OC (centres undefined),,"inconclusive: 35.5 µM [falling, partial curve, poor fit]"
Cc1cc(C(=O)NCc2csc(-c3ccccc3)n2)no1,inconclusive: 5.41%,
C=CC[n+]1ccc(/C=C2\C=Cc3cc(C)ccc3N2CC)c2ccccc21,,"inconclusive: 20 µM [activator, single point]"

SMILES,"activity change, negative = inhibition",Potency
Cc1c(N2C(=O)/C(=C/C3CC=CCC3)SC2=S)c(=O)n(-c2ccccc2)n1C (centres undefined),inconclusive: -10.6%,
COc1ccc(CNC2CCSc3ccccc32)cc1OC (centres undefined),inconclusive: -6.07%,
CCOc1ccccc1NC(=O)CCc1nnc2ccc(N3CCC4(CC3)OCCO4)nn12,inactive,
O=C(O)c1ccc(OCCCCCCOC2CCCCO2)cc1 (centres undefined),inconclusive: 5.91%,
CC(C)(C)C1CCC2(CC1)NC(=S)N(c1ccccc1)N2 (centres undefined),inactive,
COCCn1c(SCC(=O)c2c(N)n(C3CC3)c(=O)[nH]c2=O)nnc1-c1cccc(C)c1,inconclusive: -1.76%,
C=CCSc1nnc2c(n1)OC=Nc1ccc(Br)cc1-2,inconclusive: 6.79%,
COc1ccccc1NC(=O)c1sc2nc(N3CCOCC3)c3c(c2c1N)CCCC3,inconclusive: -16.2%,
O=C(NC(=S)NNC(=O)c1cnccn1)c1ccc(Cl)cc1,inactive,
CC(=O)N1CCC2(CC1)C/C(=N\NC(=S)Nc1ccccc1F)c1cc(O)ccc1O2,,"inconclusive: 8.91 µM [falling, partial curve, poor fit]"
O=C1C(=O)c2ccc(-c3ccccc3)cc2-c2ccccc21,,"inconclusive: 11.6 µM [falling, partial curve, poor fit]"
COc1ccc(Nc2nc(C)nc3c2nnn3Cc2ccccc2Cl)c(OC)c1,inconclusive: 5.33%,
O=C1NC(c2ccccc2)CCO1 (centres undefined),inconclusive: -2.48%,
CCc1nnc(NC(=O)c2cc(Cl)ccn2)s1,,"inconclusive: 31.6 µM [cytotoxic, single point]"
CC(C)(C)[C@H]1C=C(C(=O)NCc2nc3ccccc3[nH]2)O[C@@H](OCc2ccc(CO)cc2)C1,inconclusive: -24.5%,
CCNC(=O)COC(=O)c1cc(C)n(-c2ccccc2)c1C,inconclusive: -2.62%,
O=C1c2ccccc2NC(c2ccccc2O)N1c1ccc(F)cc1 (centres undefined),inactive,
COc1ccccc1NC(=O)c1ccccc1NC(=O)c1ccccn1,inconclusive: -13.9%,
O=C(NCc1ccc2c(c1)OCO2)c1ccc(CSCc2ccc(Cl)cc2)o1,inconclusive: -6.51%,
CC(Oc1ccc(Br)cc1)C(=O)Nc1cc(Cl)ccc1N1CCN(C)CC1 (centres undefined),inconclusive: -14.5%,
COc1ccc(C2C(C#N)=C(N)Oc3cc(O)ccc32)cc1Cl (centres undefined),inactive,

SMILES,"activity change, negative = inhibition",Potency
C=CCNC(=O)/C(C#N)=C\c1cc(Cl)c(OCC)c(OC)c1,inactive,
CCNc1c(NC(C)=O)c(=O)oc2ccccc12,inactive,
CCCn1nc(NC(=O)c2cccs2)c2cc3cc(C)ccc3nc21,inconclusive: 9.4%,
O=c1[nH]c(/C=C/c2ccccc2Cl)c([N+](=O)[O-])c(=O)[nH]1,,"inconclusive: 31.6 µM [falling, single point]"
CC(C)(C)NCc1cc(Cl)ccc1OCc1ccccc1F,inactive,
O=C(N/N=C/C=C\c1cccc([N+](=O)[O-])c1)c1cccnc1,inactive,
O=C(c1ccccc1)c1ccc(OCC(O)CNCc2cccc(Cl)c2)cc1 (centres undefined),inactive,
Cc1ccc(-c2cc(C(F)F)n3ncc(C(=O)N4CCN(c5ccccn5)CC4)c3n2)cc1,inconclusive: 1.17%,
C=CCn1c(SCc2nc3sc(C(=O)O)c(C)c3c(=O)[nH]2)nnc1-c1ccc(C(C)(C)C)cc1,inactive,
Cc1nn(C)cc1C(=O)NNC(=S)Nc1ccc(Cl)cc1,inconclusive: -27.9%,
CC(NC(=O)c1ccc(F)cc1Cl)C1CC2CCC1C2 (centres undefined),inconclusive: 7.01%,
NC(=O)c1ccsc1NC(=O)COC(=O)COc1ccccc1[N+](=O)[O-],inactive,
CS(=O)(=O)c1nc(-c2ccccc2)cc(C(F)(F)F)n1,,"inconclusive: 9.2 µM [rising, partial curve]"
Cc1ccc(C(=O)NCc2ccco2)cc1S(=O)(=O)Nc1cccc(Cl)c1,inconclusive: 22.6%,
O=C(CCSCc1ccccc1F)NCc1ccc(F)cc1,inconclusive: 5.2%,
COc1ccc(C2CC(O)(C(C)(C)O)NO2)cc1 (centres undefined),inconclusive: -8.88%,
Oc1ccccc1-c1nnc(-c2ccc(C(F)(F)F)cc2)o1,inconclusive: 11%,
NNC(=O)c1sccc1OCc1cccc(C(F)(F)F)c1,inactive,
COC(=O)Cn1c(CN2CCc3ccccc3C2)nc2c1c(=O)n(C)c(=O)n2C,inactive,
CCOC(=O)C1=C(C)NC(C)=C(C(=O)OCC)C1c1cc(N)ccc1OC(F)F,inconclusive: -5.02%,
OC(CC1CC12c1ccccc1-c1ncccc12)(c1ccccc1)c1ccccc1 (centres undefined),,"inconclusive: 29.1 µM [rising, single point]"

# Reformatted with bars between the fields: part of the list above.
SMILES | activity change, negative = inhibition | Potency
CC(C)(C)[C@H]1C=C(C(=O)NCc2nc3ccccc3[nH]2)O[C@@H](OCc2ccc(CO)cc2)C1 | inconclusive: -24.5% | 
CCNC(=O)COC(=O)c1cc(C)n(-c2ccccc2)c1C | inconclusive: -2.62% | 
O=C1c2ccccc2NC(c2ccccc2O)N1c1ccc(F)cc1 (centres undefined) | inactive | 
COc1ccccc1NC(=O)c1ccccc1NC(=O)c1ccccn1 | inconclusive: -13.9% | 
O=C(NCc1ccc2c(c1)OCO2)c1ccc(CSCc2ccc(Cl)cc2)o1 | inconclusive: -6.51% | 
CC(Oc1ccc(Br)cc1)C(=O)Nc1cc(Cl)ccc1N1CCN(C)CC1 (centres undefined) | inconclusive: -14.5% | 
COc1ccc(C2C(C#N)=C(N)Oc3cc(O)ccc32)cc1Cl (centres undefined) | inactive | 
C=CCNC(=O)/C(C#N)=C\c1cc(Cl)c(OCC)c(OC)c1 | inactive | 
CCNc1c(NC(C)=O)c(=O)oc2ccccc12 | inactive | 
CCCn1nc(NC(=O)c2cccs2)c2cc3cc(C)ccc3nc21 | inconclusive: 9.4% | 
O=c1[nH]c(/C=C/c2ccccc2Cl)c([N+](=O)[O-])c(=O)[nH]1 |  | inconclusive: 31.6 µM [falling, single point]
CC(C)(C)NCc1cc(Cl)ccc1OCc1ccccc1F | inactive | 
O=C(N/N=C/C=C\c1cccc([N+](=O)[O-])c1)c1cccnc1 | inactive | 
O=C(c1ccccc1)c1ccc(OCC(O)CNCc2cccc(Cl)c2)cc1 (centres undefined) | inactive | 
Cc1ccc(-c2cc(C(F)F)n3ncc(C(=O)N4CCN(c5ccccn5)CC4)c3n2)cc1 | inconclusive: 1.17% | 
C=CCn1c(SCc2nc3sc(C(=O)O)c(C)c3c(=O)[nH]2)nnc1-c1ccc(C(C)(C)C)cc1 | inactive | 
Cc1nn(C)cc1C(=O)NNC(=S)Nc1ccc(Cl)cc1 | inconclusive: -27.9% | 
CC(NC(=O)c1ccc(F)cc1Cl)C1CC2CCC1C2 (centres undefined) | inconclusive: 7.01% | 
NC(=O)c1ccsc1NC(=O)COC(=O)COc1ccccc1[N+](=O)[O-] | inactive | 
CS(=O)(=O)c1nc(-c2ccccc2)cc(C(F)(F)F)n1 |  | inconclusive: 9.2 µM [rising, partial curve]
Cc1ccc(C(=O)NCc2ccco2)cc1S(=O)(=O)Nc1cccc(Cl)c1 | inconclusive: 22.6% | 
O=C(CCSCc1ccccc1F)NCc1ccc(F)cc1 | inconclusive: 5.2% | 
COc1ccc(C2CC(O)(C(C)(C)O)NO2)cc1 (centres undefined) | inconclusive: -8.88% | 
Oc1ccccc1-c1nnc(-c2ccc(C(F)(F)F)cc2)o1 | inconclusive: 11% | 
NNC(=O)c1sccc1OCc1cccc(C(F)(F)F)c1 | inactive | 
